Drawing on publication PMC10781698, this text covers binding for three molecules.

Experiment [1] has as its target T1, CCDC88B (mouse (endogenous in thymus, BI-141 T cells and BMDCs)) (UniProt Q4QRL3).
T1 sequence: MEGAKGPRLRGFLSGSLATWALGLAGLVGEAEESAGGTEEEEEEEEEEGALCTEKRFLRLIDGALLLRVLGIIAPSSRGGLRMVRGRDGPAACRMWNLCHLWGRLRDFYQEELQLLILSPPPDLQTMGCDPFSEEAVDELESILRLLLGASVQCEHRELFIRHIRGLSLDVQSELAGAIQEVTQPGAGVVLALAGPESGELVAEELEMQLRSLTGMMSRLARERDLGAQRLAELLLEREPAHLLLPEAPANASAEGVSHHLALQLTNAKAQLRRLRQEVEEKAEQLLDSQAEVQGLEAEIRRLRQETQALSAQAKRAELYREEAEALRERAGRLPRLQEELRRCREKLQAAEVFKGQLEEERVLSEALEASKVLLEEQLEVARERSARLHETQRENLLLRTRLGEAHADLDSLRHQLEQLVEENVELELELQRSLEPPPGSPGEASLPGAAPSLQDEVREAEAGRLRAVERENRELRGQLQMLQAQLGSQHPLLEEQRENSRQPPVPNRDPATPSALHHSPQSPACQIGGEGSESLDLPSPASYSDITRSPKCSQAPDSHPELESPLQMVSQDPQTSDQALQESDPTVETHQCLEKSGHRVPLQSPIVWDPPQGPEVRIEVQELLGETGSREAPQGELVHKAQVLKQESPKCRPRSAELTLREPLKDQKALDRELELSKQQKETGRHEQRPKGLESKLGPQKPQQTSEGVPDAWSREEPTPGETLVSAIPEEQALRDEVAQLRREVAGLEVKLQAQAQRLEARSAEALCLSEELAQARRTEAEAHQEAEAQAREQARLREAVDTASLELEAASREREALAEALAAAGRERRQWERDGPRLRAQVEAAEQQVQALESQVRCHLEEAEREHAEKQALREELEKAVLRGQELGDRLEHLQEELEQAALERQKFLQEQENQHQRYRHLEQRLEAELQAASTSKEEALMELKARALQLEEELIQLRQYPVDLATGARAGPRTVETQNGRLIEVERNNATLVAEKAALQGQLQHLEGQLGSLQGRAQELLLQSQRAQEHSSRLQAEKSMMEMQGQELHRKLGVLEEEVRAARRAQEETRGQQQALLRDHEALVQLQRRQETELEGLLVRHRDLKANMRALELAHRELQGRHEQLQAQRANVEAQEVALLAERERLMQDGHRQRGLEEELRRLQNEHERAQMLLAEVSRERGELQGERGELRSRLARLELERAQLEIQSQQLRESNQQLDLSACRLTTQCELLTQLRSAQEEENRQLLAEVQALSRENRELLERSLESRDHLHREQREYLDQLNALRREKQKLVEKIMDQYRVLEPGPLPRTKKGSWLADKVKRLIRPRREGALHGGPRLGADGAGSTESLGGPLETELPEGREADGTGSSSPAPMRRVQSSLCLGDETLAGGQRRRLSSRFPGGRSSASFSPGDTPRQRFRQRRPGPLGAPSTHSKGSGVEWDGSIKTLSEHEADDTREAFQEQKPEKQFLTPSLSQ
Nature of the experiment: affinity purification with mass spectrometry; anti-CCDC88B anti-serum on Dynabeads M270 Epoxy; 200 mg cryo-milled mouse thymocytes; 20 mM HEPES pH 7.4, 0.5% Triton X-100, 200 mM NaCl; SDS-PAGE, nine Sypro-stained bands excised, LC-MS/MS.

The target in experiment [2] is T1, CCDC88B (mouse (endogenous in thymus, BI-141 T cells and BMDCs)). Nature of the experiment: affinity purification with mass spectrometry; anti-CCDC88B co-immunoprecipitation from cryo-milled BI-141 T cells and mouse thymocytes, three lysis buffers, in triplicate, label-free quantitative LC-MS/MS, hits filtered and scored.

Results are given in words; binding and its absence hold for the method and conditions named. Binding seen in cells or lysates may run through a third protein. A yes stands for co-enrichment or nearness to the bait. Other partners may have been found.

B1: Rho/Rac Guanine Nucleotide Exchange Factor 2 (ARHGEF2) (protein, UniProt Q60875 1-985)
chain: MSRIESLTRARIDRSKEQATKTREKEKMKEAKDARYTNGHLFTTISVSGMTMCYACNKSITAKEALICPTCNVTIHNRCKDTLANCTKVKQKQQKAALLRNNTALQSVSLRSKTTTRERPTSAIYPSDSFRQSLLGSRRGLSSLSLAKSVSTTNIAGHFNDESPLGLRQILSQSTDSLNMRNRTLSVESLIDEGVEVFYNELMSDFEMDEKDFEADSWSLAVDSSFLQQHKKEVMKKQDVIYELIQTELHHVRTLKIMTRLFRTGMLEELQMEPEVVQGLFPCVDELSDIHTRFLNQLLERRRQALCPGSTRNFVIHRLGDLLISQFSGSNAEQMRKTYSEFCSRHTKALKLYKELYARDKRFQQFIRKMTRSAVLKRHGVQECILLVTQRITKYPVLINRILQNSHGVEEEYQDLASALGLVKELLSNVDQDVHELEKEARLQEIYNRMDPRAQTPVPGKGPFGRDELLRRKLIHEGCLLWKTATGRFKDVLLLLMTDVLVFLQEKDQKYIFTSLDKPSVVSLQNLIVRDIANQAKGMFLISSGPPEMYEVHAASRDDRTTWIRVIQQSVRLCPSREDFPLIETEDKAYLRRIKTKLQQKNQALVELLQKNVELFAEMVHFQALKAGFVGMPPPALPRGLFRLESFESLRGERLLKDALREVEGLKDLLLGPCVDLPMTSREPALPLDSDSGSCPGVTANGEARTFNGSIELCRADSDSSQKDRNGNQLRSPQEEVLQPLINLYGLLHGLQAVVVQQERLMEALFPEGPERWEKLSRANSRDGEAGRAAVASVTPEKQATELALLQRQHTLLQEELRRCQRLGEERATEAGSLEARLRESEQARALLEREAEEIRRQLAALGQNEPLPAEAPWARRPLDPRRRSLPAGDALYLSFNPPQPSRGHDRLDLPVTVRSLHRPFDDREAQELGSPEDRLQDSSDPDTGSEEEVSSRLSPPHSPRDFTRMQDIPEETESRDGEPTASES
As to B1, the binding entry in experiment [1] is reported as “binds”.

B2: Nucleoporin 160 (NUP160) (protein, UniProt Q9Z0W3 1-1402)
chain: MAAAGSLERSFVELSGAERERPRHFREFTVCDIGTASAAFGTVKYSESAGGFYYVESGKLFSITRNRFIHWKTSGDTLELVEESLDLNLLNNAVRLKFQNYNILPGGVHVSETQNHVIILILTNQTVHRLILPHPSRMYRSELVTESQMQSIFTDIGKVDFRDPCNSQLIPSVPGLSPGSTTSAAWLSSDGEALFALPSASGGIFVLKLPPYDVPGIASVVELKQSSVMQRLLTGWMPTAIRGDHGPSDRALSLAVHCVEHDAFIFALCQDHKLRMWSYKDQMCLMVADMLEYVPVNKDLRLTAGTGHKLRLAYSPSMGLYLGIYMHAPKRGQFCVFQLVSTENNRYSLDHISSLFTSQETLVDFALTSTDIWALWHDAENQTIVKYINFEHNVAGQWNPVFMQPLPEEEIVIRDDQDPREMYLRSLFTPGHFINAALCKALQIFCRGTERNLDLSWNELKKEITLAVENELQGSVTEYEFSQDEFRTLQQEFWCKFYACVLQYQEALSHPLALHLNPVTNMVCLLKKGYLSFLVPSSLVDHLYLLPDEHLLTEDETTISDDADVARDVLCLIKCLRMIGESVTMDMAVLMETSCYNLQSPEKAAEHILEDLITIDVENVMEDICSKLQEIRNPVHAIGLLIREMDYETEVEMEKGFDPAQPLNVRMNLSQLYGSSTAGYIVCRGVYKIASTRFLICRDLLILQQLLTRLGDAVILGAGQLFQAQQDLLHRTAPLLLSYYLIKWASQCLATDVPVDTLESNLQHLSVLELTDSGALMANKLVSSPQTIMELFFQEVARKQIISHLFSQPKAPLSQTGLNWPEMITAVTGYLLQLLWPSNPGCLFLECLMGNCQYVQLQDYIQLLHPWCQVNVGSCRFMLGRCYLVTGEVQKALECFCQAASEVGKEEFLDRLIRSEDGEIVSTPKLQYYDKVLRLLDVVGLPELVIQLATSAITEAGDDWKSQATLRTCIFKHHLDLGHNSQAYEALTQIPDSSRQLDCLRQLVVVLCERSQLQDLVEFPYVNLHNEVVGIIESRARAVDLMTHNYYELLYAFHIYRHNYRKAGTVMFEYGMRLGREVRTLRGLEKQGNCYLAAINCLRLIRPEYAWIVQPASGAVSDRPGASPKRNHDGECTAAPTNRQIEILELEDLEKEYSLARIRLTLARHDPSVIAIAGSSSAKEMSALLVQAGLFDTAISLCQTFTLPLTPVFEGLAFKCIKLQFGGEAAQGEAWSWLATNQLSSVITTKESSATDEAWRLLSTYLERYKVQNNLYHHCVINKLLSHGVPLPNWLINSYKKVDAAELLRLYLNYDLLEEAVDLVSEYVDAVLGKGHQYFGIEFPLSATAPMVWLPYSSIDQLLQALGENSANSHNIILSQKILDKLEDYQQKVDKATRDLLYRRDL
As for B2, the binding result in experiment [1] was “binds”.

B3: RAS Protein Activator Like 3 (RASAL3) (protein, UniProt Q8C2K5 1-1041)
chain: MKPECGQTMFRTFWSRSRDSSAMDPPLQSEEDSQTQPSLPSPLTSYRWHTGGSGEKAAGGFRWGRFAGWGRALSHQEPMVNSQPAPRSLFRRVLSAPPKESRSNRLRFSKTLWGRHKNVAPLEPKPNPKAPEPELELVADPDLPVAQIPEPPTPDMPVWNIDGFTLLEGKLVMLGEEEGPRQIRVGSASSENSMQAALGNLKDAVRTPGKTEPEAAGSNQVHNVRKLLKRLKEKKRAKSELGAYTPRDGPPSALGSRESLATLSELDLGAERDVRVWPLHPSLLGEPYCFQVTWAGGSLCFSCRSSAERDRWIEDLRRQFQPSQDNVERQEMWLTVWVHEAKGLPRATVPGVRAELWLDGALLARTAPRAGPGQLFWAERFHFEALPPARRLSLRLRSAGPAGATVGRVVLELDEVSIPRAPAAGLERWFPVLGAPAGAVLRARIRVRCLRVLPSERYKELAEFLTFHYARLCGALEPALSAQAKEELAAAMVRVLRATGRAQALVTDLGTAELARCGGREALLFRENTLATKAIDEYMKLVAQEYLQDTLGQVVRCLCASTEDCEVDPSKCPTPELPKHQARLRDSCEEVFENIIHSYNCFPAELGSVFSSWREACKARGSEALGPRLVCASLFLRLLCPAILAPSLFGLAPEHPAPGPARTLTLIAKVIQNLANCAPFGEKEAYMAFMNSFLEDHGPAMQHFLDQVATVDADTTPSGYQGSGDLALQLAVLHVQLCTIFAELDQKTQDSLEPLPTILRAIEEGRPVPVSVPMRLPRISTQVQSSFFSGEKPGFLAPRDLPKHTPLISKSQSLRSFQGAGSWASRRPDEERPQRRPRPVLRTQSVPARRPTHRRPSAGSKPRPKGSLRMGPAPCGRAWTRASASLPRKPSVPWQRQMDQPGDRYQTTGTHRPVGKLAEIQCEVAIFREAQKALSLLVESLSTQVQALKEQQEHFRCQLQDLYSRLGAGISKLDSKGGLPSNGSHRLKSLEQRLTEMECSQDQLRDSLQSLQLLSKTPGSRSQPLPLKAPCVNGADLSMGT
For the molecule B3, the binding entry in experiment [2] and in experiment [1] was “binds” each time.
